{
  "source": "PubChem BioAssay AID540276",
  "about": "(National Center for Advancing Translational Sciences (NCATS), 2011)",
  "note": "Out of some 300,000 compounds screened, about 5,400 (1.8%) were called active. Inconclusive means that the source gave no clear call. Such entries were picked first, then a sample of the others. Calls come from the whole dose curve; tested in HEK293 cells. Potencies of inconclusive entries are doubtful fits and often do not repeat. Potency is the fitted concentration of half-maximal effect.",
  "data": [
    {"test": "qHTS for inhibitors of binding or entry into cells for Marburg Virus", "settings": "Marburg virus pseudotyped entry inhibition, cell reporter; series mostly up to 37.8 µM", "values": [
      {"smiles": "CC(=O)c1c(C)[nH]c(C(=O)COC(=O)Cc2ccccc2F)c1C", "Potency": "inconclusive: 5.62 µM [activator, single point]"},
      {"smiles": "COc1ccc2nc3sc(C(=O)NCCN4CCc5ccccc5C4)cc3cc2c1", "Potency": "inconclusive: 3.16 µM [activator, single point]"},
      {"smiles": "COc1ccc(NC(=O)/C=C/c2cccc(Br)c2)cn1", "Potency": "inconclusive: 35.5 µM [inhibitor, single point]"},
      {"smiles": "Cc1cccnc1NC1OC(=O)c2ccccc21", "note": "(configuration not stated)", "Potency": "inconclusive: 3.55 µM [inhibitor, single point]"},
      {"smiles": "Cc1ccc(OCc2ccc(C(=O)Nc3ccc(S(N)(=O)=O)cc3)o2)cc1", "Potency": "inconclusive: 1.78 µM [inhibitor, partial curve, poor fit]"},
      {"smiles": "CC1CCCC(NC(=O)COC(=O)[C@@H](NC(=O)c2ccco2)C(C)C)C1C", "note": "(some centres not stated)", "Potency": "inconclusive: 6.31 µM [activator, partial curve, poor fit]"},
      {"smiles": "CCOc1ccc(CNC(=O)c2ccc(Sc3ccc(Cl)cc3)c(NC(C)=O)c2)cc1OC", "Potency": "inconclusive: 10 µM [inhibitor, partial curve, poor fit]"},
      {"smiles": "Cc1ccc(CC2SC(=Nc3ccccc3)N(c3ccccc3)C2=O)cc1", "note": "(configuration not stated)", "Potency": "inconclusive: 15.8 µM [inhibitor, single point]"},
      {"smiles": "O=C1CCCc2c1cc(C(=O)NC1CCSC1=O)c(=O)n2-c1ccccc1", "note": "(configuration not stated)", "Potency": "inactive"},
      {"smiles": "Cc1onc(-c2ccccc2Cl)c1C(=O)Nc1sc2c(c1C#N)CCC2", "Potency": "inconclusive: 25.9 µM [inhibitor, single point]"},
      {"smiles": "CC(C)[n+]1ccn(C2=C([O-])c3ccccc3C(=O)/C2=N\\S(=O)(=O)c2ccccc2)c1", "Potency": "inconclusive: 20 µM [inhibitor, single point]"},
      {"smiles": "O=C(Nc1ccccc1Cl)c1ccccc1S(=O)(=O)c1ccccc1[N+](=O)[O-]", "Potency": "inconclusive: 0.562 µM [activator, full curve, poor fit]"},
      {"smiles": "Cc1ccc(NC(=O)c2cccs2)cc1S(=O)(=O)N(C)C", "Potency": "inconclusive: 5.01 µM [activator, single point]"},
      {"smiles": "Cc1ccc(S(=O)(=O)N2CCOCC2)cc1C(=O)NC1CCCC(C)C1C", "note": "(configuration not stated)", "Potency": "inconclusive: 1.26 µM [inhibitor, single point]"},
      {"smiles": "COC(=O)C1=C(N)N(c2ccccc2C(F)(F)F)C2=C(C(=O)CCC2)C1c1ccc2c(c1)OCO2", "note": "(configuration not stated)", "Potency": "inactive"},
      {"smiles": "COc1cccc(N(C(=O)c2nc3nccc(C)n3n2)c2nc3ccccc3s2)c1", "Potency": "inconclusive: 6.31 µM [activator, single point]"},
      {"smiles": "CCC(C)Sc1nc2c(c(=O)[nH]c(=O)n2C)n1CCc1ccccc1", "note": "(configuration not stated)", "Potency": "inconclusive: 0.501 µM [activator, partial curve, poor fit]"}
    ]}
  ]
}
